Test results from patent US20060166984A1, “Amino substituted benzo(hetero)cyclic derivatives” (priority 2003, published 2006).
Some results were stated once for a whole list of compounds, not compound by compound. At least one compound was matched to its structure with a doubt left.

Columns and labels:
[1] = tested on: Cotton Aphid (aphis gossypii); assay: Cotton Aphid foliar dip test on cotton cotyledons; format: in vivo; details: 300 ppm, counts after 5 days
Description: Cotton Aphid (aphis gossypii)
The active compounds were formulated in 50:50 acetone:water and 100 ppm Kinetic® surfactant (a nonionic wetting agent which is a blend of polyalkyleneoxide modified polydimethylsiloxane and polyoxypropylene-polyoxyethylene copolymers, available from Helena Chemical Company, Memphis, Tenn. 38119, U.S.A.).
Cotton plants at the cotyledon stage (one plant per pot) were infested by placing a heavily infested leaf from the main colony on top of each cotyledon. The aphids were allowed to transfer to the host plant overnight, and the leaf used to transfer the aphids was removed. The cotyledons were dipped in the test solution and allowed to dry. After 5 days, mortality counts were made.

[2] = tested on: Green Peach Aphid (myzus persicae); assay: Green Peach Aphid foliar dip test on pepper plants; format: in vivo; details: 300 ppm, after 5 days
Protocol: Green Peach Aphid (myzus persicae)
The active compounds were formulated in 50:50 acetone:water and 100 ppm Kinetic® surfactant.
Pepper plants in the 2nd leaf-pair stage (variety ‘California Wonder’) were infested with approximately 40 laboratory-reared aphids by placing infested leaf sections on top of the test plants. The leaf sections were removed after 24 hours. The leaves of the intact plants were dipped into gradient solutions of the test compound and allowed to dry. Test plants were maintained under fluorescent light (24 hour photoperiod) at about 25° C. and […] relative humidity. Aphid mortality on the treated plants, relative to mortality on check plants, was determined after 5 days.

CN1CCN([C@@H]2C[C@H](c3ccccc3)c3ccc(F)cc32)CC1 (relative stereo) [Compound 53, Cis,trans-1-[6-Fluoro-3-phenyl-2,3-dihydro-1H-inden-1-yl]-4-methylpiperazine]
mortality in comparison with untreated controls [1]: over 85% | mortality in comparison with untreated controls [2]: over 85%
